The series can be described thus: general procedure: Fmoc solid-phase peptide synthesis; Rink-Amide MBHA resin (0.73 mmol/g coupling capacity); DIC/HOBt. The conditions noted are these: whole synthesis; for final HPLC purity: 220 nm; for isolated yield: over all synthetic and purification steps.

Strings that start with PEPTIDE1 are HELM notation: dots part the residues, brackets hold end groups and non-standard residues. Non-standard residues stand in square brackets, D forms with d. *: point of attachment. Daunorubicin(13-NOCH2CO) = COc1cccc2c1C(=O)c1c(O)c3c(c(O)c1C2=O)C[C@@](O)(C(C)=NOCC(=O)*)C[C@@H]3O[C@H]1C[C@H](N)[C@H](O)[C@H](C)O1; pGlu = O=C1CC[C@@H](C(=O)O)N1; Butyryl = CCCC(=O)* Bounds are passed on as bounds.

For “PEPTIDE1{[Glp].H.W.[Lys(Bu)].H.D.W.K.P.G.[am]}|PEPTIDE2{[DauAoa]}$PEPTIDE1,PEPTIDE2,8:R3-1:R2$$$V2.0”, the “final HPLC purity” value is greater than 97% and the isolated yield is reported as 27%.
The corresponding values for “PEPTIDE1{[Glp].H.W.[Lys(Bu)].H.[dD].W.K.P.G.[am]}|PEPTIDE2{[DauAoa]}$PEPTIDE1,PEPTIDE2,8:R3-1:R2$$$V2.0” are greater than 98% and 9%.
The corresponding values for “[pGlu]HWK(Butyryl)H[dE]WK(Daunorubicin(13-NOCH2CO))PG-NH2 (SMILES CCCC(=O)NCCCC[C@H](NC(=O)[C@H](Cc1c[nH]c2ccccc12)NC(=O)[C@H](Cc1c[nH]cn1)NC(=O)[C@@H]1CCC(=O)N1)C(=O)N[C@@H](Cc1c[nH]cn1)C(=O)N[C@H](CCC(=O)O)C(=O)N[C@@H](Cc1c[nH]c2ccccc12)C(=O)N[C@@H](CCCCNC(=O)CON=C(C)[C@]1(O)Cc2c(O)c3c(c(O)c2[C@@H](O[C@H]2C[C@H](N)[C@H](O)[C@H](C)O2)C1)C(=O)c1c(OC)cccc1C3=O)C(=O)N1CCC[C@H]1C(=O)NCC(N)=O)” are greater than 96% and 7%.
With “[pGlu]HWK(Butyryl)H[dW]WK(Daunorubicin(13-NOCH2CO))PG-NH2 (SMILES CCCC(=O)NCCCC[C@H](NC(=O)[C@H](Cc1c[nH]c2ccccc12)NC(=O)[C@H](Cc1c[nH]cn1)NC(=O)[C@@H]1CCC(=O)N1)C(=O)N[C@@H](Cc1c[nH]cn1)C(=O)N[C@H](Cc1c[nH]c2ccccc12)C(=O)N[C@@H](Cc1c[nH]c2ccccc12)C(=O)N[C@@H](CCCCNC(=O)CON=C(C)[C@]1(O)Cc2c(O)c3c(c(O)c2[C@@H](O[C@H]2C[C@H](N)[C@H](O)[C@H](C)O2)C1)C(=O)c1c(OC)cccc1C3=O)C(=O)N1CCC[C@H]1C(=O)NCC(N)=O)”, the “final HPLC purity” value is listed as greater than 97% and the isolated yield turned out to be 6%.
Regarding “[pGlu]HWSH[dW]WK(Daunorubicin(13-NOCH2CO))PG-NH2 (SMILES COc1cccc2c1C(=O)c1c(O)c3c(c(O)c1C2=O)C[C@@](O)(C(C)=NOCC(=O)NCCCC[C@H](NC(=O)[C@H](Cc1c[nH]c2ccccc12)NC(=O)[C@@H](Cc1c[nH]c2ccccc12)NC(=O)[C@H](Cc1c[nH]cn1)NC(=O)[C@H](CO)NC(=O)[C@H](Cc1c[nH]c2ccccc12)NC(=O)[C@H](Cc1c[nH]cn1)NC(=O)[C@@H]1CCC(=O)N1)C(=O)N1CCC[C@H]1C(=O)NCC(N)=O)C[C@@H]3O[C@H]1C[C@H](N)[C@H](O)[C@H](C)O1)”, the “final HPLC purity” value is recorded as greater than 95% and the isolated yield was determined as 7%.

Source of the values: PMC5905287 (Beilstein Journal of Organic Chemistry, 2018).
